Data reported in PMC5818060.
No constants are given. Whether binding was seen depends on the method and setting.

By UniProt entry, the sequences of proteins in these tests, tags left out. Where a name states a change or a piece, a line headed by the entry shows the natural chain unless it says otherwise. Residues count along the entry.
UniProt O00571, residues 414-582: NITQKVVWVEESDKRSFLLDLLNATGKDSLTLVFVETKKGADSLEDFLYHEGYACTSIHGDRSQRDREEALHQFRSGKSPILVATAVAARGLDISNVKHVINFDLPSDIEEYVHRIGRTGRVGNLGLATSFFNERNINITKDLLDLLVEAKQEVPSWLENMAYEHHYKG
UniProt P48730: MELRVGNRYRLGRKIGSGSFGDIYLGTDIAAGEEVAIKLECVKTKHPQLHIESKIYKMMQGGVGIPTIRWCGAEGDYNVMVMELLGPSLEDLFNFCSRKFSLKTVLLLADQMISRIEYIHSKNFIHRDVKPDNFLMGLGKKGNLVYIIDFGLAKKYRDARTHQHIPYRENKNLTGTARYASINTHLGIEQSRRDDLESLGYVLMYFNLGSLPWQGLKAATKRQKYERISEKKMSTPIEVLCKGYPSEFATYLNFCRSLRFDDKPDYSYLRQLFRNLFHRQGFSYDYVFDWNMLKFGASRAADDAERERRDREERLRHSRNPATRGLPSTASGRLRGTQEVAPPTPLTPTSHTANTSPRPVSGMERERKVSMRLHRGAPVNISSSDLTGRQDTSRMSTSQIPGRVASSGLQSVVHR

Target: His-DDX3X^414-582 (human) (UniProt O00571)
Test: fluorescence thermal shift (FTS) assay; 10 µM His-DDX3X^414-582, 20 µM peptide, 50 mM HEPES pH 8, 10x SYPRO-Orange; change of melting temperature; both purified

binding: no binding (tested: 20 µM)
Binder: SGSGAPPTPLTPTSHTANT (peptide, UniProt P48730 341-355, biotin on the N-terminus, coupled via the SGSG spacer) [CK1δ-derived peptide δ-341]
